{"source": "the supplement of paper PMC5949888", "note": "Most values lie at the floor of the assay. Slopes are relative: functional sequences can read slightly below zero.", "data": [{"tested_on": "Saccharomyces cerevisiae PS128 hsf1 delta, HSF1(1-493) fusion", "test": "growth estimate (transactivation domain function in HSF1 fusion, heat-shock survival) (a.u. (slope of normalised read count over time)); higher = stronger growth at 37°C, i.e. more transactivation activity", "conditions": "library: random library", "values": [{"substance": "PASVYGEWEGRFLGHSYNLS", "growth estimate": "< -0.25"}, {"substance": "FNPAVRMDVEDSL", "growth estimate": "< -0.25"}, {"substance": "VAMSVAPWKKTLRAASFELQ", "growth estimate": "< -0.25"}, {"substance": "SALGRC", "growth estimate": "< -0.25"}, {"substance": "SVWGGSREGRVSRRLSVMSR", "growth estimate": -0.145}, {"substance": "HDTNTMRGYLFAGRLARLPC", "growth estimate": "< -0.25"}, {"substance": "RITYDRLAVSRKARG", "growth estimate": "< -0.25"}, {"substance": "VHW", "growth estimate": "< -0.25"}, {"substance": "HHTIVGVVGSRAGYDCRPQS", "growth estimate": "< -0.25"}, {"substance": "KPFATYPFHGPSFGIDGNRC", "growth estimate": "< -0.25"}, {"substance": "WSTSHRIQYAGLETDPCIQG", "growth estimate": "< -0.25"}, {"substance": "RLEAAVPAPYEYLTWTLNWT", "growth estimate": "< -0.25"}, {"substance": "YEEPRRCLWHAGLRGLKQ", "growth estimate": "< -0.25"}, {"substance": "NFSDVTGTQAWGGRLVPRQC", "growth estimate": "< -0.25"}, {"substance": "DLYVPSGCVSLRLQINTRHI", "growth estimate": "< -0.25"}, {"substance": "LIMSLYLGLLDRTP", "growth estimate": -0.248}, {"substance": "QSLRHPPVDPY", "growth estimate": "< -0.25"}, {"substance": "LGMRWPGSYLVYQFRCTTPP", "growth estimate": "< -0.25"}, {"substance": "LHKCIHHAWYGALCG", "growth estimate": "< -0.25"}, {"substance": "CYSVRAWRHEPRTE", "growth estimate": "< -0.25"}, {"substance": "GSAKLVPTTHVP", "growth estimate": "< -0.25"}, {"substance": "KQTYF", "growth estimate": "< -0.25"}, {"substance": "FLGRGNHTGLDELTPLSNLA", "growth estimate": "< -0.25"}, {"substance": "LKLGRGSGRGGAKARVIQGT", "growth estimate": "< -0.25"}, {"substance": "VHPRVYRDISTFAK", "growth estimate": "< -0.25"}, {"substance": "GRCRCPAC", "growth estimate": "< -0.25"}, {"substance": "ELASKRI", "growth estimate": "< -0.25"}, {"substance": "RVYCSTSRPSTGLRRSYVSA", "growth estimate": "< -0.25"}, {"substance": "NLNEQQSMNGTLASCR", "growth estimate": "< -0.25"}, {"substance": "KLLRTSELLSLDGYYSKTCE", "growth estimate": "< -0.25"}, {"substance": "RECACQL", "growth estimate": "< -0.25"}, {"substance": "RRHNCSDLGFSLMSENCLLP", "growth estimate": "< -0.25"}, {"substance": "RYGIDRVLGAPGDNALFLGC", "growth estimate": "< -0.25"}, {"substance": "LRLLRLSGFSSCCQRRWPSL", "growth estimate": "< -0.25"}, {"substance": "GGVCCLRCSLSGLPNRPDGH", "growth estimate": "< -0.25"}, {"substance": "SRDHGRTARYPLMEE", "growth estimate": "< -0.25"}, {"substance": "TEVMEKGALYVSDRRRERRS", "growth estimate": "< -0.25"}, {"substance": "SSGWNGREIRSSFQRVLDAC", "growth estimate": -0.112}, {"substance": "CMV", "growth estimate": "< -0.25"}, {"substance": "PCRD", "growth estimate": "< -0.25"}, {"substance": "DGLKKCDSRD", "growth estimate": "< -0.25"}, {"substance": "TADE", "growth estimate": "< -0.25"}, {"substance": "PGDRLIQVKRGWFRALVSWL", "growth estimate": "< -0.25"}, {"substance": "ICHFMAVQNKVSMFDYAIKS", "growth estimate": "< -0.25"}, {"substance": "AGRCV", "growth estimate": "< -0.25"}, {"substance": "SKLAMVLP", "growth estimate": -0.218}, {"substance": "RHARRSGIISEVSERIGIFA", "growth estimate": "< -0.25"}, {"substance": "VFGRRESGLSGESRTGIRSL", "growth estimate": "< -0.25"}, {"substance": "PSIVLGE", "growth estimate": "< -0.25"}, {"substance": "NFGGTSAVRASRYGRIQSWA", "growth estimate": "< -0.25"}, {"substance": "SDKEDNCAKKYGPGSPLLLD", "growth estimate": "< -0.25"}, {"substance": "LDQRSAQVRADLCWRTVPSD", "growth estimate": "< -0.25"}, {"substance": "IKYINALRGE", "growth estimate": "< -0.25"}, {"substance": "PKSRGIRSHS", "growth estimate": "< -0.25"}, {"substance": "QLTLGHCNSGAVIRVVALCC", "growth estimate": "< -0.25"}, {"substance": "CPMGTVSQIKRQGTILYNHP", "growth estimate": "< -0.25"}, {"substance": "DPTAKDLSLRHGPT", "growth estimate": "< -0.25"}, {"substance": "GHTTS", "growth estimate": "< -0.25"}, {"substance": "CCSPMPRRHRRGTQDVKLIF", "growth estimate": "< -0.25"}, {"substance": "GQERSYVCDARRIGGQVGHH", "growth estimate": "< -0.25"}, {"substance": "EEGTCAVRGLNRTFPCMRVA", "growth estimate": "< -0.25"}, {"substance": "VSVRCHGSDS", "growth estimate": -0.0061}, {"substance": "FGIPRPTQLWTIVWGGLSLS", "growth estimate": "< -0.25"}, {"substance": "RRFGRCPSWRNSGAGWARSN", "growth estimate": "< -0.25"}, {"substance": "SQKGYGQSLTRVLHSLEVTR", "growth estimate": "< -0.25"}, {"substance": "CLGSRAYGELRPIRE", "growth estimate": "< -0.25"}, {"substance": "VYAKLYGYLD", "growth estimate": "< -0.25"}, {"substance": "KFWSKNSRTGKHRGT", "growth estimate": "< -0.25"}, {"substance": "SNCA", "growth estimate": "< -0.25"}, {"substance": "LVDAVRYRAQR", "growth estimate": -0.246}, {"substance": "LLPGVSWQYFRGPGEGRLYL", "growth estimate": "< -0.25"}, {"substance": "FVLRIM", "growth estimate": "< -0.25"}, {"substance": "NKSNTFTMWSCPSCLN", "growth estimate": "< -0.25"}, {"substance": "CTSLGPRLLMQGLRRPVHAV", "growth estimate": "< -0.25"}, {"substance": "PGW", "growth estimate": "< -0.25"}, {"substance": "KEPGYRQYNGGTTLRLLSFY", "growth estimate": "< -0.25"}, {"substance": "RSRYITVGGAWAELPQLPLR", "growth estimate": "< -0.25"}, {"substance": "AQWYPPRDHSWTPTGLGSPD", "growth estimate": "< -0.25"}, {"substance": "SCGMRGCIK", "growth estimate": "< -0.25"}, {"substance": "RYSTWV", "growth estimate": "< -0.25"}, {"substance": "YVWRVRVFGRKPMVSTRDRR", "growth estimate": "< -0.25"}, {"substance": "GIGSRRGSPQPP", "growth estimate": "< -0.25"}, {"substance": "SRYSNVVFQWARV", "growth estimate": "< -0.25"}, {"substance": "PLLLLRACIRGSDRVITFAR", "growth estimate": "< -0.25"}, {"substance": "IDSLLKTKT", "growth estimate": "< -0.25"}, {"substance": "GRNFDPLGGPNTY", "growth estimate": "< -0.25"}, {"substance": "HRWFCRSFCRVRGRSLVGMC", "growth estimate": "< -0.25"}, {"substance": "VVAPWCGDARDYRGFISSDI", "growth estimate": "< -0.25"}, {"substance": "GLRERYQLAFSADSTQMASS", "growth estimate": "< -0.25"}, {"substance": "ITVRACLLGVIYKSCFTHQP", "growth estimate": "< -0.25"}, {"substance": "RKPEVLRSIRPPISSRRLDN", "growth estimate": "< -0.25"}, {"substance": "FRGH", "growth estimate": "< -0.25"}, {"substance": "RRMRAVLRQRASLGGEDGVA", "growth estimate": "< -0.25"}, {"substance": "CLR", "growth estimate": "< -0.25"}, {"substance": "TNCKLPRPPGPPCLRCIQFH", "growth estimate": "< -0.25"}, {"substance": "LKSF", "growth estimate": "< -0.25"}, {"substance": "QPTL", "growth estimate": "< -0.25"}, {"substance": "VEFGSFICIAGPPRPDSSLQ", "growth estimate": "< -0.25"}, {"substance": "GKHNSKVFPCNWSARTSGVH", "growth estimate": "< -0.25"}]}]}
